Measured values: patent publication US20080219971A1
No constants are given. Whether binding was seen depends on the method and setting. Some binding calls cover weakened binding; strength is not graded here.

The chains behind the UniProt entries cited, without tags or fusion partners. Residues count along the entry.
UniProt O43157, residues 20-2135: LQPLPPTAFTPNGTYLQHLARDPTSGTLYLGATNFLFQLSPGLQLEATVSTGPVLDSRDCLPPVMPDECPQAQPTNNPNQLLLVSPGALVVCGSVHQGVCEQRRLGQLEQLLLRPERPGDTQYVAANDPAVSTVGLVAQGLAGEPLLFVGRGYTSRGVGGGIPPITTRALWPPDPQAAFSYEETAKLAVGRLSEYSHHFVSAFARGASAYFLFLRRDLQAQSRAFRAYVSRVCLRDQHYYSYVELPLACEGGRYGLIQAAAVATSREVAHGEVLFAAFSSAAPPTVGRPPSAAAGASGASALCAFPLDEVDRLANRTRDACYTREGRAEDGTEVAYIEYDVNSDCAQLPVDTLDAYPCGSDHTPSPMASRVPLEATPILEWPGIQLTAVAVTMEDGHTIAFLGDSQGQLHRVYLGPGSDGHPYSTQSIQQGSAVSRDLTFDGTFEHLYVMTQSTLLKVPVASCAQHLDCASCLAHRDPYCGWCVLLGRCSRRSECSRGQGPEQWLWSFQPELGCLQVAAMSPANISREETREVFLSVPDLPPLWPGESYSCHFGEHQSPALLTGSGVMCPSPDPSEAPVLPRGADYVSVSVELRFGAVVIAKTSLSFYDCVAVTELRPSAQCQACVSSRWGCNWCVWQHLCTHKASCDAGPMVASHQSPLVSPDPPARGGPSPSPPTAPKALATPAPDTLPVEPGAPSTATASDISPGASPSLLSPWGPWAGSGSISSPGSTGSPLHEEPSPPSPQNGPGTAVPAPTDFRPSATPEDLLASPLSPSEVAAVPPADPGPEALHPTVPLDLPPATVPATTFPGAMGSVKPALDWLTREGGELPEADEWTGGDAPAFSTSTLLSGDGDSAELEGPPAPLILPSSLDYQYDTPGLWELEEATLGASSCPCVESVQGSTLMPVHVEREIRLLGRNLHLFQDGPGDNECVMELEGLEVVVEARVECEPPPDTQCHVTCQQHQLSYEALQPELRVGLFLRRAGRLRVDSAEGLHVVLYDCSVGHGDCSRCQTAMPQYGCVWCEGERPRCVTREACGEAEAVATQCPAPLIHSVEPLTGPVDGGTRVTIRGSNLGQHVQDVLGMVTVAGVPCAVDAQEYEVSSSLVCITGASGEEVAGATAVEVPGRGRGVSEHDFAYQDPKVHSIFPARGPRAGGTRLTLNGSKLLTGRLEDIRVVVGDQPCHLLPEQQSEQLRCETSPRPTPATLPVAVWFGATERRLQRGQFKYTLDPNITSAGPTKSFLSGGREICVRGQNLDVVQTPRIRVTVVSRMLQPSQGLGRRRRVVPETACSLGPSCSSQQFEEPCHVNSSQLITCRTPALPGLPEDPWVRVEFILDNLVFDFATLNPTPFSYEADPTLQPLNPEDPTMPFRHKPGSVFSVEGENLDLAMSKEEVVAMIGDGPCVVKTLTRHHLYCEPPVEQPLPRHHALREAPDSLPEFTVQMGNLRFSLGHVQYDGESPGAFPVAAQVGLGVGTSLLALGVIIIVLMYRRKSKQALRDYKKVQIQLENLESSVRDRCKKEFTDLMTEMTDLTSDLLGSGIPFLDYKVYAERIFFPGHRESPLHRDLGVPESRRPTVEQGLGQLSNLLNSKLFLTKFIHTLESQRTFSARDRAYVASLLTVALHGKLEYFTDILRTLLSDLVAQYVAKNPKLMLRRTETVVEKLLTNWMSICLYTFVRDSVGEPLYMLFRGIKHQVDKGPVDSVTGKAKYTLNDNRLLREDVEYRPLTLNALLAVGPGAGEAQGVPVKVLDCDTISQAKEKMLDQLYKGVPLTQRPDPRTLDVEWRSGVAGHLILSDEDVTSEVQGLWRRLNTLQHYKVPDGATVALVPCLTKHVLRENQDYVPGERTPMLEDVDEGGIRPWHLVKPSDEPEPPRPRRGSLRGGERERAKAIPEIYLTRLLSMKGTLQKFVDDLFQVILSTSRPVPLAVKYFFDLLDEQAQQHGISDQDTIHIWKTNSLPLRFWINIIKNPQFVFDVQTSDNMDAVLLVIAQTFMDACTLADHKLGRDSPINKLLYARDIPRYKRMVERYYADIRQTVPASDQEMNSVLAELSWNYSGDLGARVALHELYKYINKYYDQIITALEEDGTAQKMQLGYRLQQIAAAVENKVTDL
UniProt Q92854, residues 22-734: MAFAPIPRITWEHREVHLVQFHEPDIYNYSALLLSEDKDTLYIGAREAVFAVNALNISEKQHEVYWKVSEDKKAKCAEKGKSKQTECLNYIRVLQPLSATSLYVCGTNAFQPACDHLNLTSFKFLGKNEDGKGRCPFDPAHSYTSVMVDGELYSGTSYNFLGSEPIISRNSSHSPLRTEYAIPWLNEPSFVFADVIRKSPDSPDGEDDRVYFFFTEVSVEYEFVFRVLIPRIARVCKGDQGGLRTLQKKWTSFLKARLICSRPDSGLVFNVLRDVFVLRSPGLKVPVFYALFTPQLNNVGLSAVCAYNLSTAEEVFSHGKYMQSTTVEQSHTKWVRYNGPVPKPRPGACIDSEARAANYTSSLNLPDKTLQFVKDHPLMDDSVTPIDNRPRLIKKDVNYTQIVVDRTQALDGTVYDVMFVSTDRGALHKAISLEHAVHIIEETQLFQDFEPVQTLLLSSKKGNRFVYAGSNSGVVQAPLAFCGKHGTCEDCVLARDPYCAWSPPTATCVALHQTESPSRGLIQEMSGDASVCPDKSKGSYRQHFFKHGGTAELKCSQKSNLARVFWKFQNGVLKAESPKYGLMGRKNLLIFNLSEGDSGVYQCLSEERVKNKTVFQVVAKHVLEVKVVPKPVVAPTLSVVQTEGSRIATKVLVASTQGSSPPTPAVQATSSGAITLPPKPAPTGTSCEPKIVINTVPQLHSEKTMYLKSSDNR

Columns and labels:
Plexin B1 [1] = biological target: Plexin B1 (UniProt O43157); experiment: CD100-AP (50 ng) on COS/Plexin B1 cells; bound CD100-AP shown by alkaline phosphatase staining
Plexin B1 [2] = biological target: Plexin B1 (UniProt O43157); experiment: flow cytometry on 293/Plexin B1 cells; bound CD100-AP detected with biotinylated rabbit anti-His and streptavidin-APC, FL4-H
Plexin B1 [3] = biological target: Plexin B1 (UniProt O43157); experiment: flow cytometry on 293/Plexin B1 cells; bound CD100-His detected with biotinylated rabbit anti-His and streptavidin-APC, FL4-H

binding (Plexin B1 [1])	binding (Plexin B1 [2])	binding (Plexin B1 [3])	Substance
binds	binds	–	CD100-AP (from UniProt Q92854 22-734)
–	–	binds	human CD100-His (from UniProt Q92854 22-734) (ligand)
